From PMC12339391
No constants are given. Whether binding was seen depends on the method and setting. In cells and extracts the contact can be indirect. Here binding means that the protein was enriched with, or labelled near, the bait; the list need not be complete. Tags and fused reporters may be left off the sequences shown.

The chains behind the UniProt entries cited, without tags or fusion partners. Where a name states a change or a piece, a line headed by the entry shows the natural chain unless it says otherwise.
UniProt P27796: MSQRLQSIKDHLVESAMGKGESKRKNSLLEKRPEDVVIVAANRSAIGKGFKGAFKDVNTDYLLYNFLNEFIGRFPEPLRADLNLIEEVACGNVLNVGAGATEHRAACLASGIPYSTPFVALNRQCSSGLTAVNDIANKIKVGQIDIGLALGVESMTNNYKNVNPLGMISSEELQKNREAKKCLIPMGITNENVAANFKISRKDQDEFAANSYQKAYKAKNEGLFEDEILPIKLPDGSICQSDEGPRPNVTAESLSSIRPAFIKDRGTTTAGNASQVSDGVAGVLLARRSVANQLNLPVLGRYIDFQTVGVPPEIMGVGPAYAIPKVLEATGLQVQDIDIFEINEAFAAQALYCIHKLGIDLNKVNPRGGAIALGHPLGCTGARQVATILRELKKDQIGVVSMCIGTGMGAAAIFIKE

Target: T1, Pex18-TPA (S. cerevisiae Pex18 fused C terminally with the TEV protease cleavage site and protein A tag) (S. cerevisiae) (UniProt P38855)
T1 sequence: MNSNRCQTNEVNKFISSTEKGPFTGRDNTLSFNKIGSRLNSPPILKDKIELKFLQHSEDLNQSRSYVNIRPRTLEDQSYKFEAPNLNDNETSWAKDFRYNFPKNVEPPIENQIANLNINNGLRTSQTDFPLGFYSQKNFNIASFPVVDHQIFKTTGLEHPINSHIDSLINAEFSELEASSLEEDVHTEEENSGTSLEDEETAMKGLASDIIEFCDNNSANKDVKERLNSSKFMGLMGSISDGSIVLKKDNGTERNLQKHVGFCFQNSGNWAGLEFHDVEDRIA
Test: affinity purification with mass spectrometry; Pex18-TPA (protein A tag) as bait; native complexes from soluble fractions of yeast grown in oleic acid medium, eluted with TEV protease; control: untagged wild type; label-free quantification, n = 3

## Pot1 (S. cerevisiae ACAA1, PTS2-containing protein) (from UniProt P27796)
  binding: binds
